# Reference: PubChem BioAssay AID1259308 (NCATS, 2017)
# Aim: 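Genes whose loss raises luciferase production in HEK293 cells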 (primary screen)
# Cell system: human HEK293 embryonic kidney cells stably expressing firefly luciferase (HEK-CMV-Luc2-Hygro)
# Knock-down reagent: single siRNA against human genes, 0.8 pmol siRNA per well
# Timing: 72 h
# Measurement: 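Luciferase light (ONE-Glo) measured on one replicate plate set and viability (CellTiter-Glo) on the other, scaled to a negative control siRNA, with robust z-scores and luciferase per cell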
# Direction: total luciferase, z-score and total luciferase, % of control: higher = more reporter protein produced; luciferase per cell, z-score: higher = more reporter output per viable cell; viable cells, % of control: higher = more viable cells
# Hit rule: 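An siRNA counts as active if its total luciferase robust z-score exceeds 3; genes with two or more such siRNAs out of three were retested with fresh siRNAs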
# Meaning of the calls: active = raised luciferase; inactive = no rise
# The whole screen tested about 59,000 reagents; this is a random part of them. About 1,510 of all reagents (2.6%) count as active. 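Calls use total luciferase alone and ignore viability, so some active siRNAs may act by altering cell number.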 A number with no mark means an inactive call. The numbers tell different reagents against one gene apart.
Target gene,reagent,"total luciferase, z-score","total luciferase, % of control","luciferase per cell, z-score","viable cells, % of control"
PSME2 (proteasome activator subunit 2),1,0.471,91.2,0.0782,99.9
PSME2 (proteasome activator subunit 2),2,1.35,109,4.29,39.3
PSME2 (proteasome activator subunit 2),3,-0.214,77.6,-0.637,103
SERINC1 (serine incorporator 1),1,2.48,131,1.6,96.1
SERINC1 (serine incorporator 1),2,-0.93,63.4,0.13,68.4
SERINC1 (serine incorporator 1),3,-0.124,79.4,-0.473,101
FMNL1-DT (FMNL1 divergent transcript),1,-0.0265,81.4,0.733,75
FMNL1-DT (FMNL1 divergent transcript),2,0.249,86.8,0.469,85.8
FMNL1-DT (FMNL1 divergent transcript),3,1.15,105,3.03,52.7
PLCL1 (phospholipase C like 1 (inactive)),1,0.158,85,0.245,89.1
PLCL1 (phospholipase C like 1 (inactive)),2,0.117,84.2,-0.893,119
PLCL1 (phospholipase C like 1 (inactive)),3,-0.688,68.2,-0.69,91.4
MANBA (mannosidase beta),1,0.121,84.3,-0.231,100
MANBA (mannosidase beta),2,0.216,86.2,-0.335,105
MANBA (mannosidase beta),3,-0.408,73.8,-1.02,108
TMPRSS11D (transmembrane serine protease 11D),1,0.363,89.1,0.123,96.4
TMPRSS11D (transmembrane serine protease 11D),2,0.647,94.8,0.612,90.1
TMPRSS11D (transmembrane serine protease 11D),3,-0.51,71.7,-1.32,114
TAAR2 (trace amine associated receptor 2),1,0.862,99,0.909,87.1
TAAR2 (trace amine associated receptor 2),2,-0.501,71.9,-0.687,96.3
TAAR2 (trace amine associated receptor 2),3,-1.37,54.6,-1.14,82.4
RBM19 (RNA binding motif protein 19),1,-0.391,74.1,-0.00905,83
RBM19 (RNA binding motif protein 19),2,0.532,92.5,1.22,74.9
RBM19 (RNA binding motif protein 19),3,-1.35,55.1,-1.76,97.7
IL21 (interleukin 21),1,0.896,99.7,0.67,93.4
IL21 (interleukin 21),2,1.8,118,2.8,62.9
IL21 (interleukin 21),3,1.47,111,0.995,95.5
HIPK1 (homeodomain interacting protein kinase 1),1,0.684,95.5,0.938,83.4
HIPK1 (homeodomain interacting protein kinase 1),2,2.33,128,2.2,80.4
HIPK1 (homeodomain interacting protein kinase 1),3,3.08 (active),143,2.69,78.7
H4C6 (H4 clustered histone 6),1,-1.91,43.8,-1.47,72.1
H4C6 (H4 clustered histone 6),2,0.859,99,0.267,103
H4C6 (H4 clustered histone 6),3,2.37,129,1.23,104
GCSAM (germinal center associated signaling and motility),1,0.293,87.7,-0.306,106
GCSAM (germinal center associated signaling and motility),2,0.147,84.8,-0.278,102
GCSAM (germinal center associated signaling and motility),3,2.86,139,2.31,84.3
KYAT3 (kynurenine aminotransferase 3),1,1.66,115,0.891,102
KYAT3 (kynurenine aminotransferase 3),2,-0.213,77.6,-0.724,105
KYAT3 (kynurenine aminotransferase 3),3,-1.12,59.7,-1.26,93
HAS2 (hyaluronan synthase 2),1,0.466,91.1,0.964,79
HAS2 (hyaluronan synthase 2),2,-0.565,70.7,-0.0989,81
HAS2 (hyaluronan synthase 2),3,0.364,89.1,0.543,86.3
TTC28 (tetratricopeptide repeat domain 28),1,-0.273,76.5,-0.532,98.3
TTC28 (tetratricopeptide repeat domain 28),2,0.0504,82.9,-0.457,104
TTC28 (tetratricopeptide repeat domain 28),3,-0.226,77.4,0.0275,85.8
FBXW10B (F-box and WD repeat domain containing 10B),1,0.319,88.2,0.547,85.4
FBXW10B (F-box and WD repeat domain containing 10B),2,-0.338,75.2,0.284,77.9
FBXW10B (F-box and WD repeat domain containing 10B),3,1.52,112,0.892,99.1
"PIM3 (Pim-3 proto-oncogene, serine/threonine kinase)",1,0.902,99.8,0.37,101
"PIM3 (Pim-3 proto-oncogene, serine/threonine kinase)",2,-0.222,77.5,-0.0297,87.2
"PIM3 (Pim-3 proto-oncogene, serine/threonine kinase)",3,-1.61,49.9,-1.97,93.7
TRAF3 (TNF receptor associated factor 3),1,0.727,96.4,-0.142,112
TRAF3 (TNF receptor associated factor 3),2,4.07 (active),163,2.21,102
TRAF3 (TNF receptor associated factor 3),3,1.73,116,1.91,78.7
CST2 (cystatin SA),1,-2.38,34.5,-2.66,77.8
CST2 (cystatin SA),2,0.511,92,0.157,98.7
CST2 (cystatin SA),3,0.285,87.6,0.304,90.3

Part of the list above, set out differently:
Target gene | reagent | total luciferase, z-score | total luciferase, % of control | luciferase per cell, z-score | viable cells, % of control
PIM3 (Pim-3 proto-oncogene, serine/threonine kinase) | 3 | -1.61 | 49.9 | -1.97 | 93.7
TRAF3 (TNF receptor associated factor 3) | 1 | 0.727 | 96.4 | -0.142 | 112
TRAF3 (TNF receptor associated factor 3) | 2 | 4.07 (active) | 163 | 2.21 | 102
TRAF3 (TNF receptor associated factor 3) | 3 | 1.73 | 116 | 1.91 | 78.7
CST2 (cystatin SA) | 1 | -2.38 | 34.5 | -2.66 | 77.8
CST2 (cystatin SA) | 2 | 0.511 | 92 | 0.157 | 98.7
